Here are results for 4 molecules from PMC6377406.

Amino acid sequences for entries named in this document (tags omitted). Residues count along the entry.
UniProt Q9BXM7, residues 78-581: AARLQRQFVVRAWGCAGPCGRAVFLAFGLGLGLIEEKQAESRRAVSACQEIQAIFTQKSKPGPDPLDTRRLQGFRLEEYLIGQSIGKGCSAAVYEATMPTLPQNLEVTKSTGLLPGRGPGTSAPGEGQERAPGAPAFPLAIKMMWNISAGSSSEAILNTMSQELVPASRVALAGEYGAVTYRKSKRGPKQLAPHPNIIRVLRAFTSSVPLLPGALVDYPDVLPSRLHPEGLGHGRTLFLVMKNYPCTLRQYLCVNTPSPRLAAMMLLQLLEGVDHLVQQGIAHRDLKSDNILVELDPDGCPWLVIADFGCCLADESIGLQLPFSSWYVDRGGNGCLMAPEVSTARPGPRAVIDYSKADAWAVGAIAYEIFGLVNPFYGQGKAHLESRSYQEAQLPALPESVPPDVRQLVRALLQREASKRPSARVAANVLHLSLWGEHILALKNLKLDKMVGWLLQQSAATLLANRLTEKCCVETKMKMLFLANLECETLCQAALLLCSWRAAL

For test [1], the target named is valosin-containing protein (VCP), endogenous in HEK293 cells (human (endogenous in HEK293)) (UniProt P55072). Put plainly: co-IP; IP of endogenous VCP from HEK cells: Protein A and Protein G agarose beads, 2 μg antibody, 1 mg lysate, overnight at 4°C; immunoblot for endogenous PINK1. Background: In western blotting, separated proteins are transferred to a membrane and probed.

In test [2] the target is GFP-VCP (UniProt P55072). As to the kind of experiment: co-IP; GFP IP (μMACS Epitope Tag Protein Isolation kit) of lysates of transfected HEK293 cells; immunoblot.
Test [3] concerns the target valosin-containing protein (VCP), endogenous in human brain cortex (human (endogenous in brain cortex)) (UniProt P55072). Put plainly: co-IP; IP of endogenous VCP from postmortem human cortex: Protein A and Protein G agarose beads, 2 μg antibody, 1 mg lysate, overnight at 4°C; immunoblot for endogenous PINK1.
Test [4] addresses GFP-VCP (UniProt P55072). Put plainly: co-IP; GFP IP (μMACS Epitope Tag Protein Isolation kit) of lysates of transfected HEK293 cells; immunoblot. This is another data set of the same source.

Like-named read-outs stand apart in the source and are kept apart here. These are yes or no findings as the source states them, for the method shown. Binding seen in cells or lysates may run through a third protein. Some binding calls cover weakened binding; strength is not graded here.

As for “PINK1, endogenous in HEK293 cells (from UniProt Q9BXM7 78-581)”, the binding result in test [1] is “binds”.

Take “WT-PINK1-FLAG (from UniProt Q9BXM7 78-581)”: the binding entry with GFP-VCP [2] is “binds”.

Regarding “PINK1, endogenous in human brain cortex (from UniProt Q9BXM7 78-581)”, the binding result in test [3] is “binds”.

B1: NSFL1C/p47, endogenous in HEK293 cells (protein, UniProt Q9UNZ2 1-370)
chain: MAAERQEALREFVAVTGAEEDRARFFLESAGWDLQIALASFYEDGGDEDIVTISQATPSSVSRGTAPSDNRVTSFRDLIHDQDEDEEEEEGQRFYAGGSERSGQQIVGPPRKKSPNELVDDLFKGAKEHGAVAVERVTKSPGETSKPRPFAGGGYRLGAAPEEESAYVAGEKRQHSSQDVHVVLKLWKSGFSLDNGELRSYQDPSNAQFLESIRRGEVPAELRRLAHGGQVNLDMEDHRDEDFVKPKGAFKAFTGEGQKLGSTAPQVLSTSSPAQQAENEAKASSSILIDESEPTTNIQIRLADGGRLVQKFNHSHRISDIRLFIVDARPAMAATSFILMTTFPNKELADESQTLKEANLLNAVIVQRLT
For B1, the binding entry in the test with GFP-VCP [4] is given as “binds”.
